Counter-ions that a name gives are not always drawn. The list shows a part of the results. Many values rest on one well or one pass, so single values are uncertain.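 Labelled rat cortical synaptosomes were engulfed by primary human fetal astrocytes. Engulfment equaled a red/green ratio, corrected for calcein live-cell signal and normalized to the plate median. Compounds were toxic when calcein dropped over 30%, and reduced phagocytosis when below 70% of the median above 5 µM.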
Columns and labels:
[1] = test system: Human fetal astrocytes; experiment: loss of total cells relative to no-compound high-control median (toxicity); higher = more toxic (fewer cells); conditions: 24 h
[2] = test system: Human fetal astrocytes; experiment: synaptosome phagocytosis (pHrodo/calcein intensity ratio) relative to plate median of data wells; higher = more phagocytosis; conditions: 24 h

| SMILES | loss of total cells ([1]; 1.39 µM) | loss of total cells ([1]; 2.78 µM) | loss of total cells ([1]; 5.56 µM) | loss of total cells ([1]; 11.11 µM) | loss of total cells ([1]; 22.22 µM) | synaptosome phagocytosis ([2]; 1.39 µM) | synaptosome phagocytosis ([2]; 2.78 µM) | synaptosome phagocytosis ([2]; 5.56 µM) | synaptosome phagocytosis ([2]; 11.11 µM) | synaptosome phagocytosis ([2]; 22.22 µM) |
| --- | --- | --- | --- | --- | --- | --- | --- | --- | --- | --- |
| N#C/C(=C\c1ccc(O)c(O)c1)C(=O)NCCc1ccccc1 [Tyrphostin AG 698] | -36.3% | -14.1% | -7.3% | -12.6% | -46.1% | 110% | 90.1% | 98% | 104% | 84.2% |
| CC[N+](CC)(CC)CC(=O)Nc1c(C)cccc1C [Lidocaine N-ethyl bromide quaternary salt] | -10% | -0.5% | -7% | -14.3% | 10.3% | 91.4% | 109% | 86.8% | 94.8% | 108% |
| O=C1O/C(=C/Br)CCC1c1cccc2ccccc12 (stereo not given) [Bromoenol lactone] | -37.8% | 2.1% | -6.9% | -10.3% | -9.4% | 105% | 80.2% | 77.3% | 101% | 71.7% |
| COc1ccc(CCN(C)CCCC(C#N)(c2cc(OC)c(OC)c(OC)c2)C(C)C)cc1OC (racemic) [(±)-Methoxyverapamil hydrochloride] | -21.3% | 17.6% | 11.7% | 7.6% | 13.1% | 110% | 81.4% | 86.5% | 115% | 84.1% |
| [N-]=[N+]=Nc1ccc(C(=O)CSC[C@H](NC(=O)CC[C@H](N)C(=O)O)C(=O)NCC(=O)O)cc1 [S-(p-Azidophenacyl)glutathione] | -8.1% | -4.8% | -11.5% | -7.6% | 1.9% | 118% | 96% | 99% | 82% | 92.6% |
| CCn1c(=O)[nH]c2cc(Cl)c(Cl)cc21 | 26.4% | -9.4% | -5.8% | -13.9% | 9.6% | 79.6% | 106% | 110% | 106% | 106% |
| N#C/C(=C\c1ccc(O)c(O)c1)C(=O)Nc1ccccc1 [Tyrphostin AG 494] | -23.3% | -11.7% | -5.1% | 3.4% | -4.1% | 113% | 101% | 103% | 124% | 101% |
| OCC1OC(n2cnc3c(NC4CCCCC4)ncnc32)C(O)C1O (stereo not given) [N6-Cyclohexyladenosine] | -12.1% | -7.7% | -9.1% | -19.3% | 4.8% | 88.4% | 98.8% | 141% | 80.1% | 106% |
| Nc1ncnc2c1ncn2[C@@H]1O[C@H](COP(=O)(O)CP(=O)(O)OP(=O)(O)O)[C@H](O)C1O (stereo partly drawn) [alpha,beta-Methylene adenosine 5'-triphosphate dilithium] | -18.5% | 17.6% | 9.9% | 1.9% | 2.8% | 109% | 74.7% | 120% | 104% | 125% |
| O=Nc1ccc2oc(=O)ccc2c1 [6-Nitroso-1,2-benzopyrone] | -21.3% | 9.5% | -6.1% | 8.6% | 24.3% | 109% | 108% | 81.9% | 63.3% | 103% |
| CC(C(O)c1ccc(O)cc1)N1CCC(Cc2ccccc2)CC1 (stereo not given) [Ifenprodil tartrate] | -14.7% | 13.1% | 26.8% | 17.1% | 15.9% | 87.7% | 137% | 95.8% | 104% | 121% |
| CC1CCN(CC[C@H]2CCCN2S(=O)(=O)c2cccc(O)c2)CC1 | 7.1% | -12.9% | 6.2% | 13.4% | -12.3% | 102% | 73.9% | 72% | 70.4% | 83.3% |
| S=C(Nc1ccccc1)Nc1nccs1 [1-Phenyl-3-(2-thiazolyl)-2-thiourea] | -7.1% | 3.2% | 27.7% | 7.6% | 25.2% | 134% | 105% | 107% | 82.3% | 75.5% |
| N#C/C(=C\c1c[nH]c2ccccc12)C(=O)c1ccc(O)c(O)c1 [Tyrphostin AG 808] | -29.5% | -24.9% | -21.3% | -18% | -18.9% | 93.5% | 92% | 106% | 86.9% | 128% |
| CCCn1c(=O)c2[nH]c(C3CCCC3)nc2n(CCC)c1=O [8-Cyclopentyl-1,3-dipropylxanthine] | 13% | -14.5% | 4.1% | 8.5% | -5.6% | 109% | 74.3% | 118% | 131% | 92.4% |
| CC1(C2CCCC2)Cc2cc(OCC(=O)O)c(Cl)c(Cl)c2C1=O (stereo not given) | 26.1% | 18.6% | -3.3% | 25.7% | 22.4% | 41.7% | 59.6% | 79.8% | 88.3% | 67% |
| CC(C)=CCC/C(C)=C/CC/C(C)=C/CSc1ccccc1C(=O)O [Farnesylthiosalicylic acid] | 5.4% | -12% | 12.3% | -0.4% | 13.6% | 115% | 110% | 105% | 111% | 106% |
| CC1CN(S(=O)(=O)c2cccc3cnccc23)CCN1 (stereo not given) | -19.4% | 7.7% | 18.3% | 12.4% | 25.2% | 114% | 112% | 96.3% | 114% | 91.8% |
| COc1cc(OC)c(C=C2C(=O)Nc3ccccc32)c(OC)c1 | 2.8% | -17.1% | 6.7% | -0.4% | -16.5% | 94.6% | 102% | 122% | 95.2% | 105% |
| CC(C(=O)O)c1ccc(CC2CCCC2=O)cc1 (stereo not given) [loxoprofen] | -17.5% | -6.8% | 11.7% | 27.6% | 32.7% | 86.6% | 91.9% | 110% | 116% | 111% |

| SMILES | loss of total cells ([1]; 1.39 µM) | loss of total cells ([1]; 2.78 µM) | loss of total cells ([1]; 5.56 µM) | loss of total cells ([1]; 11.11 µM) | loss of total cells ([1]; 22.22 µM) | synaptosome phagocytosis ([2]; 1.39 µM) | synaptosome phagocytosis ([2]; 2.78 µM) | synaptosome phagocytosis ([2]; 5.56 µM) | synaptosome phagocytosis ([2]; 11.11 µM) | synaptosome phagocytosis ([2]; 22.22 µM) |
| --- | --- | --- | --- | --- | --- | --- | --- | --- | --- | --- |
| [Cl-].[Li+] [Lithium Chloride] | 11.3% | 2.6% | -6.6% | 0.4% | 10.4% | 98.5% | 86.9% | 111% | 134% | 113% |
| CCSC(=N)N [S-Ethylisothiourea hydrobromide] | -15.5% | -6% | 0.8% | -23.8% | -4% | 76.8% | 123% | 98.1% | 99.1% | 71% |
| O=C(OCCN1CCCCC1)c1c[nH]c2ccccc12 | 4.6% | -6.8% | -4.9% | 6.7% | -8% | 111% | 95.6% | 89.1% | 86.8% | 93% |
| CN1C2CCC1CC(NC(=O)c1nn(C)c3ccccc13)C2 (stereo not given) [LY-278,584 maleate] | -3.3% | -4.1% | 4.2% | -5.7% | 18.7% | 101% | 121% | 85.8% | 107% | 96.6% |
| COc1ccccc1N1CCN(CCN(C(=O)C2CCCCC2)c2ccccn2)CC1 | -23.3% | -18.9% | -13.5% | -28.7% | -30.5% | 69.5% | 79.4% | 78.9% | 93.6% | 118% |
| Nc1ccc2c3c(cccc13)C(=O)NC2=O [4-Amino-1,8-naphthalimide] | -4.4% | -1.8% | -18.9% | -0.4% | -9.4% | 254% | 106% | 124% | 140% | 82.2% |
| NC(=NCCC[C@H](N)C(=O)O)NO [NG-Hydroxy-L-arginine acetate] | 1.3% | -6% | -2.5% | -6.7% | -0.8% | 114% | 87.6% | 120% | 95.9% | 120% |
| CC(C)[C@H]1c2ccc(F)cc2CC[C@@]1(CCN(C)CCCc1nc2ccccc2[nH]1)OC(=O)C1CC1 | 5.2% | 8.6% | 21.1% | 59% | 97.2% | 123% | 78.8% | 58.2% | 25.4% | 0% |
| N[C@@H](Cc1c[nH]c2ccc(O)cc12)C(=O)O [5-Hydroxy-L-tryptophan] | -19.7% | -12.8% | 3.3% | -13.9% | -9.6% | 108% | 101% | 103% | 98.2% | 168% |
| CN[C@H](CC(C)C)C(=O)N[C@H]1C(=O)N[C@@H](CC(N)=O)C(=O)N[C@H]2C(=O)N[C@H]3C(=O)N[C@H](C(=O)N[C@H](C(=O)O)c4cc(O)cc(O)c4-c4cc3ccc4O)[C@H](O)c3ccc(c(Cl)c3)Oc3cc2cc(c3O[C@@H]2O[C@H](CO)[C@@H](O)[C@H](O)[C@H]2O[C@H]2C[C@](C)(N)[C@H](O)[C@H](C)O2)Oc2ccc(cc2Cl)[C@H]1O [Vancomycin hydrochloride from Streptomyces orientalis] | -24.5% | -18.3% | -11.2% | -5% | -58.4% | 111% | 91.2% | 88.3% | 101% | 97.5% |
| CCN(CC)CCOC(=O)c1cc(Cl)c(N)cc1OC [SDZ-205,557 hydrochloride] | -19.6% | -15.3% | 5.1% | -4.2% | -10.7% | 107% | 103% | 127% | 92.4% | 104% |
| c1cnc2c(c1)ccc1cccnc12 [1,10-Phenanthroline monohydrate] | -12.1% | 0.3% | -13.5% | 12.6% | -3.3% | 115% | 116% | 77% | 90.9% | 61.3% |
| NCCC(=O)NCCc1c[nH]cn1 [Carcinine dihydrochloride] | -20.2% | -9.9% | -5.1% | -8.5% | -3.4% | 97.4% | 91.6% | 96.7% | 110% | 105% |
| CCCCCC(O)CCCC(=O)O (stereo not given) [5-hydroxydecanoic acid sodium] | -4.6% | -3.4% | -9.1% | -28.3% | -4.8% | 104% | 99.6% | 63% | 93.8% | 98% |
| CCCCN1CCC(n2c(=O)[nH]c3ccccc32)CC1 [NS 521 oxalate] | -17.5% | -11.3% | -3.3% | -7.6% | 13.1% | 92.1% | 54.7% | 115% | 86.5% | 126% |
| Oc1cc2c(cc1O)CN(C(=S)NCCc1ccc(Cl)cc1)CCC2 [Capsazepine] | -28.9% | -20.5% | -23% | 13.9% | 6.4% | 93.2% | 94.8% | 83.7% | 102% | 85.2% |
| CC(C)NCC(O)c1ccc(O)c(O)c1 (stereo not drawn) [S(+)-Isoproterenol (+)-bitartrate] | 1.4% | 23.1% | 17.4% | 37.1% | 21.5% | 123% | 131% | 113% | 174% | 144% |
| CNC(=O)[C@H]1O[C@@H](n2cnc3c(NCc4cccc(I)c4)ncnc32)[C@H](O)[C@@H]1O | 3.3% | 18.6% | 8% | 21% | 23.4% | 84.3% | 108% | 113% | 131% | 100% |
| C/C=C1\C(=O)C[C@H]2[C@@H]3CCC4=CC(=O)CC[C@]4(C)[C@H]3CC[C@]12C [(Z)-Gugglesterone] | 9.6% | -17.9% | -14% | 1.3% | 4% | 132% | 118% | 97.6% | 95.3% | 123% |

One compound at a time, from the list above. Values in the order: loss of total cells ([1]; 1.39 µM) | loss of total cells ([1]; 2.78 µM) | loss of total cells ([1]; 5.56 µM) | loss of total cells ([1]; 11.11 µM) | loss of total cells ([1]; 22.22 µM) | synaptosome phagocytosis ([2]; 1.39 µM) | synaptosome phagocytosis ([2]; 2.78 µM) | synaptosome phagocytosis ([2]; 5.56 µM) | synaptosome phagocytosis ([2]; 11.11 µM) | synaptosome phagocytosis ([2]; 22.22 µM)
CC[N+](CC)(CC)CC(=O)Nc1c(C)cccc1C [Lidocaine N-ethyl bromide quaternary salt] as listed: -10% | -0.5% | -7% | -14.3% | 10.3% | 91.4% | 109% | 86.8% | 94.8% | 108%
CC(C)=CCC/C(C)=C/CC/C(C)=C/CSc1ccccc1C(=O)O [Farnesylthiosalicylic acid] as listed: 5.4% | -12% | 12.3% | -0.4% | 13.6% | 115% | 110% | 105% | 111% | 106%
